In article PMC3322156:
No constants are given. Whether binding was seen depends on the method and setting. Binding seen in cells or lysates may run through a third protein. Here binding means that the protein was enriched with, or labelled near, the bait; the list need not be complete. One block for each binder: values may come before it.

Chains of the proteins cited; added tags and fusions are not shown. Lines headed by an entry give the natural chain unless they say otherwise; changes in a name come on top.
UniProt Q9CQJ4: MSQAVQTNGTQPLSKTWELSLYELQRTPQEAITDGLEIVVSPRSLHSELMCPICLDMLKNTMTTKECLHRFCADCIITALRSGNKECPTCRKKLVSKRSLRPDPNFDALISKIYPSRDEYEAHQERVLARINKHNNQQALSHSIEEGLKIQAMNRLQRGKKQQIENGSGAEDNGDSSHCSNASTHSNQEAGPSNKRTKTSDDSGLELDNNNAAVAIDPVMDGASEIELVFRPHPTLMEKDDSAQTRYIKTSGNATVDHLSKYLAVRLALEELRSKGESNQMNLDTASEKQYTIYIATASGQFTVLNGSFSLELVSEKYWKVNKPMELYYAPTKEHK

Tests used:
[1] = biological target: Ring1B (mouse (endogenous in ESCs)) (UniProt Q9CQJ4); assay: affinity purification with mass spectrometry; IP with anti-Ring1B (MBL, D139-3) from 400 ug ESC nuclear extract (WT cells, or Ring1B-/- cells rescued with Ring1BI53A), Protein G Sepharose 2 h at 4 C, washes BC300 (300 mM NaCl, 0.05% NP40) and BC100; 4-20% SDS-PAGE, bands cut, nLC-ESI-MS/MS; peptides also in the control IgG lane discarded; IgG heavy and light chain bands omitted
[2] = biological target: Ring1BI53A (UniProt Q9CQJ4); assay: as above

binding [1]: binds
binding [2]: binds
B1: Pcgf3 (protein, UniProt Q8BTQ0 1-241)
chain: MLTRKIKLWDINAHITCRLCSGYLIDATTVTECLHTFCRSCLVKYLEENNTCPTCRIVIHQSHPLQYIGHDRTMQDIVYKLVPGLQEAEMRKQREFYHKLGMEVPGDIKGEACSAKQHLDPRNGETKADDNSNKETAEEKQEEDNDYHRSDEQVSICLECNSSKLRGLKRKWIRCSAQATVLHLKKFIAKKLNLSSFNELDILCNEEILGKDHTLKFVVVTRWRFKKAPLLLHYRPKMDLL

binding [1]: binds
binding [2]: binds
B2: Pcgf6 (protein, UniProt Q99NA9 1-353)
chain: MDEAETDATENKRASEAKRASAMPPPPPPPPPISPPALIPAPAAGEEGPASLGQAGAAGCSRSRPPALEPERSLGRLRGRFEDYDEELEEEEEMEEEEEEEEEMSHFSLRLESGRADSEDEEERLINLVELTPYILCSICKGYLIDATTITECLHTFCKSCIVRHFYYSNRCPKCNIVVHQTQPLYNIRLDRQLQDIVYKLVINLEEREKKQMHDFYKERGLEVPKPAAPQPVPSSKGKTKKVLESVFRIPPELDMSLLLEFIGANEDTGHFKPLEKKFVRVSGEATIGHVEKFLRRKMGLDPACQVDIICGDHLLERYQTLREIRRAIGDTAMQDGLLVLHYGLVVSPLKIT

binding [1]: binds
binding [2]: binds
B3: Rybp (protein, UniProt Q8CCI5 1-228)
chain: MTMGDKKSPTRPKRQAKPAADEGFWDCSVCTFRNSAEAFKCSICDVRKGTSTRKPRINSQLVAQQVAQQYATPPPPKKEKKEKVEKPDKEKPEKDKDISPSVTKKNTNKKTKPKSDILKDPPSEANSIQSANATTKTSETNHTSRPRLKNVDRSTAQQLAVTVGNVTVIITDFKEKTRSSSTSSSTVTSSAGSEQQNQSSSGSESTDKGSSRSSTPKGDMSAVNDESF

binding [1]: binds
binding [2]: binds
B4: HMG20a (protein, UniProt Q9DC33 1-346)
chain: MESLMASSTLPPLFADEDGSKESNDLATSGLTHPEGPYGSAATSTTNPEFVEDLSQGQLLQSEASNAVEGNEQRPEDEQRSKRGGWSKGRKRKKPLRDSNAPKSPLTGYVRFMNERREQLRAKRPEVPFPEITRMLGNEWSKLPPEEKQRYLDEADRDKERYMKELEQYQKTEAYKVFSRKTQDRQKGKSHRQDAARQATHDHEKETEVKERSVFDIPIFTEEFLNHSKAREAELRQLRKSNMEFEERNAALQKHVESMRTAVEKLEVDVIQERSRNTVLQQHLETLRQMLTSSFASMPLPGSGEIPTVDTIDSYMNRLHSIILANPQDNENFIATVREVVNRLDR

binding [1]: binds
binding [2]: binds
B5: HMG20b (protein, UniProt Q9Z104 1-317)
chain: MSHGPRQPGAATAPAGGKTPGQHGAFVVAVKQERSEGSRAGEKGPQEEEPVKKRGWPKGKKRKKILPNGPKAPVTGYVRFLNERREQIRTRHPDLPFPEITKMLGAEWSKLQPAEKQRYLDEAEKEKQQYLKELWAYQQSEAYKVCTEKIQENKIKKEDSSSGLMNTLLNGHKGVDCDGFSTFDVPIFTEEFLDQNKAREAELRRLRKMNVAFEEQNAVLQRHTQSMSSARERLEQELALEERRTLALQQQLQAVRQALTASFASLPVPGTGETPTLGTLDFYMARLHGAIERDPAQHERLIARVKEILARVASEHL

binding [1]: binds
binding [2]: binds
B6: Mel18 (protein, UniProt P23798 1-342)
chain: MHRTTRIKITELNPHLMCALCGGYFIDATTIVECLHSFCKTCIVRYLETNKYCPMCDVQVHKTRPLLSIRSDKTLQDIVYKLVPGLFKDEMKRRRDFYAAYPLTEVPNGSNEDRGEVLEQEKGALGDDEIVSLSIEFYEGVRDREEKKNLTENGDGDKEKTGVRFLRCPAAMTVMHLAKFLRNKMDVPSKYKVEILYEDEPLKEYYTLMDIAYIYPWRRNGPLPLKYRVQPACKRLTLPTVPTPSEGTNTSGASECESVSDKAPSPATLPATSSSLPSPATPSHGSPSSHGPPATHPTSPTPPSTAAGTTTATNGGTSNCLQTPSSTSRGRKMTVNGAPCPP
